# From article PMC5585231
# By UniProt entry, the sequences of proteins in these tests, tags left out. Residues count along the entry.
# UniProt P20963, residues 71-135: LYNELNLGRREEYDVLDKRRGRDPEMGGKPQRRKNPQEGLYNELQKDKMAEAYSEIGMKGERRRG
# No constants are given. Whether binding was seen depends on the method and setting. Some results given as binding are weak or reduced against the parent protein; the word gives no strength.
# Target: T1, SIVmac239 Nef (66-235) (SIVmac239)
# T1 sequence: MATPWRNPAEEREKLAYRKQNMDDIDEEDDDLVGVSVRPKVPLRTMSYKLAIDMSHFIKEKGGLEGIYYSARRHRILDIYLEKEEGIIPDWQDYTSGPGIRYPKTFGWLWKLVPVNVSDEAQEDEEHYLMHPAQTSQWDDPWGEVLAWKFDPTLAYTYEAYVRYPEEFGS
# Assay: SEC; analytical gel filtration, Superdex S75 (10/300 GL); 20 mM HEPES (pH 8.0), 100 mM NaCl, 1 mM TCEP, room temperature; both purified
substance,measurement,value
CD3 ζ (71-135) (from UniProt P20963-1 71-135) (domain or fragment),binding,binds
